Source: PMC10163288
Some of the results follow.

B1: il10ra_site1_normal_mot_HHH_b2_07006_000000108_0001_1_19_H_._HHH_b2_08013_af2_0001_0000100001_0000001_0 (protein)
chain: SSSSDEAYRIAREAIEEAIELQRNGNPEEAEELLREAIREVEELGNTAARWALRHLLRLVSSSSS
B2: il10ra_site1_sap_13_mot_HHH_b1_06819_af2_000000053_0001_23_38_H_._ems_3hC_185_af2_0001_0000500012_0000001_0_0001 (protein)
chain: SSSSTEEEIERLLREAEEAEEEGNPEEAIEILLEAIRLAYQLGDEEVLQRIWELVLELAKRSSSS
B3: il10ra_site1_normal_mot_HHH_b2_07440_af2_000000021_0001_1_18_H_._HHH_b1_06862_af2_0001_0000300034_0000001_0 (protein)
chain: SSSSDELERVLELSKEAFRLLLRGNPEEAEELLEEARKLAEELGDERLLEVIEDLLRAINSSSSS
B4: il10ra_site1_normal_mot_HHH_b1_03859_af2_000000004_0001_44_57_H_._HHH_b1_04060_af2_0001_0000100001_0000002_0 (protein)
chain: SSSSSSEEEKYVKLALHFAEALEDPEAARLLLRAALEIARNANDEELEREVEKKLEEVEKSSSSS
B5: il10ra_site1_normal_mot_HHH_b1_00999_000000080_0001_41_55_H_._HHH_b2_04674_0001_0000100003_0000002_0 (protein)
chain: SSSSDEEERELEELLEELKELVEKGDEERFLRVIQELIRLAFRLSDQEALRKLWELARELGSSSS
B6: il10ra_site1_normal_mot_HHH_b1_05056_000000217_0001_1_20_H_._HHH_b2_00620_0001_0000300031_0000002_0 (protein)
chain: SSSSDEEEVEEIKKEIERAIEEGNREEALELLQRAVQLAYRLKDEELLRELWELVKLVADSSSSS
B7: il10ra_site1_sap_16_mot_HHH_b2_00092_000000181_0001_22_39_H_._750e19d4ca9b34c144e44c01c74de867_0001_af2_0001_0000300026_0000001_0_0001 (protein)
chain: SSSSDEEEVEELIKEIEELLEEGDPHKAVELIRRLAELAHELEDPELARIVLRLSREVVDISSSS
B8: il10ra_site1_normal_mot_HHH_b2_00273_000000062_0001_23_39_H_._HHH_b1_02510_0001_0000300045_0000001_1 (protein)
chain: SSSSDEEERELEELLEELEELLRKNNREEFLRLAIEVIQLAFRLGDQEVLQRVVELVRRLASSSS
B9: il10ra_site1_normal_mot_HHH_b2_07569_000000265_0001_38_56_H_._HHH_b2_07241_0001_0000500014_0000001_0 (protein)
chain: SSSSDLEEEVEELLEEAKHIKDPREVAELLLRATQLAFRANDPRLVQLVWEVAKKIFKELSSSSS
B10: il10ra_site1_sap_18_mot_HHH_b2_02022_af2_000000170_0001_1_16_H_._HHH_b2_06062_af2_0001_0000600006_0000001_0_0001 (protein)
chain: SSSSDAAEALSEQLKKALELALENNDEEALEWALRNAKNVARLANDEELEEVIEEVEKLISSSSS
B11: il10ra_site1_sap_21_mot_HHH_b1_05377_000000047_0001_42_55_H_._HHH_b2_07861_af2_0001_0000100010_0000001_0_0001 (protein)
chain: SSSSDLARRIYEALREAAKLDSDGNPEEAEELVKEAAELAEENNNRVMLALLENLLKLIEGSSSS
B12: il10ra_site1_sap_25_mot_HHH_b1_06837_000000150_0001_20_37_H_._HHH_b1_06434_af2_0001_0000900100_0000001_0_0001 (protein)
chain: SSSSDEEEERIRELLEEVEELLKEGNFEEALELAQEALRLIYRASNEELLHELWRIITKNSSSSS
B13: il10ra_site1_sap_20_mot_HHH_b2_04680_000000215_0001_1_16_H_._HHH_b1_02695_0001_0000200018_0000001_0_0001_af2pred_0001 (protein)
chain: SSSSDEEEVEKEIRELLEEARKISDRREVAYLLTRAFALATKLGDPELEELVRRVAKELASSSSS
B14: il10ra_site1_sap_11_mot_HHH_b2_03438_af2_000000049_0001_18_34_H_._HHH_b2_03634_0001_0000200045_0000001_0_0001 (protein)
chain: SSSSDEEIERILKLIQEAFRLALRGDPEEAKRLLEEAEELAEEINDPRLLRMARDLLEAINSSSS
B15: il10ra_site1_sap_15_mot_HHH_b2_04646_000000019_0001_1_20_H_._HHH_b1_08112_af2_0001_0000300009_0000001_0_0001 (protein)
chain: SSSSDVEEEVEELLEQAEELARRGNPEEAYKLLKEAAELASEANDPELQRLVVEVSRRVIGSSSS
B16: il10ra_site1_sap_19_mot_HHH_b2_03684_000000265_0001_40_56_H_._70f831dd54c9627821668b4a84eabd29_0001_1_0001_0000400010_0000001_0_0001 (protein)
chain: SSSSNEETQEVFRALERIMELAAEGNPEEARKLAEELEELIEELGNRLFLIQLRFVLRRLSSSSS
B17: il10ra_site1_sap_15_mot_HHH_b1_05056_000000217_0001_1_20_H_._HHH_b2_05962_0001_0000200009_0000002_0_0001 (protein)
chain: SSSSSEVEREVEEILEEVEELRRQGDPREAIKLLLEALKLAYRAKNPELLRLIWEVVERIGSSSS
B18: il10ra_site1_sap_23_mot_HHH_b1_04940_000000219_0001_1_18_H_._HHH_b1_06522_0001_0000300012_0000001_1_0001 (protein)
chain: SSSSDEEEAEEVLRKYEELLEEVHKKDVHKAYEVLKEAIELLLELGDAEAALEISRFFYRISSSS
B19: il10ra_site1_normal_mot_6bb093d23f5042b6c551c363657da53b_0001_1_000000153_0001_51_65_H_._HHH_b1_01157_0002_0000400029_0000001_0_af2pred_0001 (protein)
chain: SSSSDREERLEELVEEIEELLEEGDRERVARLLVELAKLAAELNDEEALRLVVELAKLLYSSSSS
B20: il10ra_site1_normal_mot_HHH_b1_00103_000000293_0001_1_15_H_._HHH_b2_03403_0001_0000600051_0000002_0_af2pred_dldesign_0_af2pred (protein)
chain: SSSSSSSPLDEETVRLIKKAHELEDPEEAKKVIEKAVELAKKAGSEILLHAAEYLLKQVSSSSSS
B21: il10ra_site1_sap_24_mot_HHH_b2_05797_000000294_0001_1_19_H_._HHH_b1_00484_0001_0000200007_0000001_0_0001 (protein)
chain: SSSSDEEVEEVVHLLQKAFRLLLRGNPEEARKLLEEAEELAEEANDPRLLRIIRDMLRDTSSSSS
B22: il10ra_site1_normal_mot_HHH_b2_07569_000000265_0001_38_56_H_._HHH_b2_05235_0001_0000200013_0000001_0 (protein)
chain: SSSSSSDVEELLEEAQELRERGNPEEAAEVLLRALQRIYELGDEELVQELWELVRRIFSSSSSSS
B23: il10ra_site1_sap_8_mot_HHH_b2_07596_000000080_0001_23_39_H_._HHH_b1_07436_0001_0000300022_0000001_0_0001_af2pred_0001 (protein)
chain: SSSSSEEEKRARELYEELRELIEEGDREEVKKVFHELVRLALEGNDREAARLIAEILRRRSSSSS
B24: il10ra_site1_normal_mot_HHH_b1_05357_000000034_0001_23_39_H_._HHH_b1_01707_af2_0001_0000400015_0000001_0_af2pred_0001 (protein)
chain: SSSSDEEEREELEKQVEEALRRGDPHRAAYIVIRLFALANKLNDPELRKLAEELAREVAELSSSS
B25: il10ra_site1_sap_11_mot_HHH_b1_00456_000000263_0001_1_17_H_._HHH_b2_01341_af2_0001_0000100005_0000002_0_0001 (protein)
chain: SSSSDVEEEVERLIEEAERLLEEGDPREAARVLQEAVRLAYESGDEELLQLIWELVHEIAKSSSS
B26: il10ra_site1_normal_mot_HHH_b1_04100_af2_000000180_0001_1_19_H_._HHH_b1_03786_0001_0000200014_0000001_0_af2pred_0001 (protein)
chain: SSSSSHIERLLRIALKALEYAVELGDEEAIRRTTKDIRASARDANDPEVEERAEELLREFGSSSS
B27: il10ra_site1_sap_27_mot_HHH_b1_06128_000000102_0001_1_20_H_._HHH_b2_05585_af2_0001_0000500028_0000002_0_0001_af2pred_0001 (protein)
chain: SSSSSNSEEVVKLLRRAIEALRQGDEEEARKLLEEAEEIAEEANNPLLQKLLELLKRQINSSSSS
B28: il10ra_site1_sap_15_mot_HHH_b1_01563_af2_000000118_0001_40_54_H_._HHH_b2_04514_0001_0000300013_0000002_0_0001 (protein)
chain: SSSSSSEEVEELLEEIREAAEEGDHRRVYELLRRVAELAHELEDPELSRRILELLREWIHSSSSS
B29: il10ra_site1_normal_mot_HHH_b2_00273_000000062_0001_23_39_H_._HHH_b2_00672_af2_0001_0000100004_0000001_0 (protein)
chain: SSSSSEEEELEELIEEIRKLIERNDPERALRLLQKLVQLAFRLRDPEALRIAWELAKLLGSSSSS
B30: il10ra_site1_normal_mot_HHH_b1_02997_000000220_0001_39_52_H_._HHH_b2_07229_0001_0000400021_0000001_0_af2pred_0001 (protein)
chain: SSSSSEEQEEAIRLLREAAELLADGNPEEAEELVERALELAREAGDPELELIAEYLLKQLSSSSS
B31: il10ra_site1_sap_21_mot_HHH_b2_05264_000000272_0001_1_21_H_._006bfdfc862164e346ab3bed36ecaee2_0001_1_0001_0000400017_0000001_0_0001 (protein)
chain: SSSSDEEEYRREVEELLEEAEHIPDDEEASKLLLEAVRLAFELQDPELLRLIWEVVRRVASSSSS
B32: il10ra_site1_normal_mot_HHH_b2_03434_000000017_0001_1_19_H_._HHH_b1_01284_0001_0000100005_0000002_0 (protein)
chain: SSSSDEADEIYKLLRRIIELINEGNPEEAQELLKEVRELAEELNDPVMRFLVEFLQEELERSSSS
B33: il10ra_site1_normal_mot_HHH_b2_02053_af2_000000006_0001_3_19_H_._HHH_b2_05626_0001_0000400022_0000002_0_af2pred_0001 (protein)
chain: SSSSSSASEEVRRLLREALHIDDPEEAEKVVEEALEVAEENNNLVAALIAEFLLRRLRNSSSSSS
B34: il10ra_site1_sap_19_mot_HHH_b2_03328_af2_000000127_0001_1_19_H_._HHH_b1_03999_af2_0001_0000400025_0000001_0_0001 (protein)
chain: SSSSSDEELFELAEEALELMANGNPEEARKVLEEAIELAEELGNQVVLHALRLLLEDLNSSSSSS
B35: il10ra_site1_sap_21_mot_HHH_b2_02053_af2_000000006_0001_3_19_H_._HHH_b1_07138_0001_0000100004_0000001_0_0001 (protein)
chain: SSSSSDIEEEVEELIEELEKLLRNGDPERASRVAVRALRLIYRLGDAELLRELWEVFTSHSSSSS
B36: il10ra_site1_normal_mot_HHH_b2_00345_af2_000000013_0001_42_56_H_._HHH_b1_01655_0001_0000400040_0000001_0 (protein)
chain: SSSSSSDEYFHEVWELIKRAIEDPREREELVEEAKELAEEYNNEVLKYAVRALEQNLNSSSSSSS
B37: il10ra_site1_normal_mot_HHH_b1_06667_af2_000000019_0001_42_58_H_._HHH_b1_07502_0001_0000400036_0000001_0 (protein)
chain: SSSSYEENARRFIRFLLEDLRHVSEEEREEALEAIRFLVEAHGDPEVEELLEEAEELLERLSSSS

molecular target: il10ra, Q13651; assay: yeast display titration

Apparent Kd, inactive:
B1 no binding seen, B2 no binding seen, B3 no binding seen, B4 no binding seen, B5 no binding seen, B6 no binding seen, B7 no binding seen, B8 no binding seen, B9 no binding seen, B10 no binding seen, B11 no binding seen, B12 no binding seen, B13 no binding seen, B14 no binding seen, B15 no binding seen, B16 no binding seen, B17 no binding seen, B18 no binding seen, B19 no binding seen, B20 no binding seen, B21 no binding seen, B22 no binding seen, B23 no binding seen, B24 no binding seen, B25 no binding seen, B26 no binding seen, B27 no binding seen, B28 no binding seen, B29 no binding seen, B30 no binding seen, B31 no binding seen, B32 no binding seen, B33 no binding seen, B34 no binding seen, B35 no binding seen, B36 no binding seen, B37 no binding seen
